Reference: US8354430B2, “Monohydrochloride salt of 1-[3-[3-(4-chlorophenyl) propoxy]propyl]-piperidine” (priority 2005, dated 2013)

System: mice
Test: Scopolamine-induced learning deficit, two-trial object recognition
Assay type: in vivo, mouse
Procedure: Lett., 1994, 170, 117-120; Bartolini et al., Biochem. Nehav., 1996, 53, 277-283]. Methods: Mice were allowed to explore a box for 30 min in the presence of two objects. The day after, mice were submitted to two trials spaced by an interval of 60 min. During the first trial (T1), mice were placed in the box containing the two identical objects and the time required by each animal to complete 20 sec of object exploration was determined. Exploration was considered to be directing the nose at a distance closer than 2 cm to the object and/or touching the object. For the second trial (T2), one of the objects presented in the first trial was replaced by and unknown novel object. Mice were placed in the box for 5 min and exploration of each object together with motor activity was determined. The following parameters were measured.

Cl.Clc1ccc(CCCOCCCN2CCCCC2)cc1 [1-[3-[3-(4-chlorophenyl)propoxy]propyl]-piperidine monohydrochloride]
time to reach the learning criteria on the first trial (5 mg/kg): did not modify
increase in motor activity of scopolamine-treated mice (5 and 15 mg/kg i.p.): not significantly modified
time to reach the learning criteria on the first trial (higher dose (15 mg/kg)): significantly increased
